Results as given in publication PMC8357417, “CTP and parS coordinate ParB partition complex dynamics and ParA-ATPase activation for ParABS-mediated DNA partitioning” (eLife, 2021).
Results are given in words; binding and its absence hold for the method and conditions named.

Biological target: ParBF^1-42-mCherry (F-plasmid (E. coli))
Test: SEC; Superose 6 3.2/300 column with protein standards; both purified

B1: ParBF^1-42-mCherry (domain or fragment, F-plasmid (E. coli))
chain: MKRAPVIPKHTLNTQPVEDTSLSTPAAPMVDSLIARVGVMAR
notes: ParBF^1-42 fused to the N-terminus of mCherry through an SGGG linker; His6 at the C-terminus of the fusion; Monomer by gel filtration; also called monomeric ParBF^1-42-mCherry; source: E. coli BL21 DE3 AI, purified (HisTrap after lysis in 6 M guanidinium chloride, S200 size exclusion); not shown: mCherry, C-terminal, kept
Question: How did the binding turn out when B1 was run?
Answer: Its binding is “no binding”.
